Reference: PubChem BioAssay AID1259254 (NCATS, 2017)
This is an unselected part of about 59,000 deposited reagents. Over the whole deposit, about 1,550 (2.6%) got an active call. 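G2 share is only a proxy for re-replication; each gene was hit by three separate siRNAs, and active genes were retested.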 Reagents against one gene are numbered here. Further read-outs or replicates are left out here. Not given: the amount of reagent.

Assay: 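Genome-wide screen for genes that prevent DNA re-replication in cancer cells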 (primary screen)
System: human HCT116 colorectal cancer cells
Knock-down reagent: single siRNA against human genes
Duration: 3 days
Measured: 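Imaged Hoechst DNA stain sorts each cell into a cycle phase by DNA amount; per plate, G2 fraction set to 0% for non-targeting and 100% for GMNN siRNA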
Reading the numbers: G2 robust z-score: higher = more G2 cells, more excess DNA replication
Rule for the call: 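Active siRNAs have a G2 robust z of 5 or more median absolute deviations over the median, which in these data means about 38% or higher of GMNN control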

Gene | reagent | G2 robust z-score | Call
ZNF624 | 1 | 0.447 | inactive
ZNF624 | 2 | 0.423 | inactive
ZNF624 | 3 | -0.488 | inactive
ZNF813 | 1 | -0.796 | inactive
ZNF813 | 2 | -0.579 | inactive
ZNF813 | 3 | -1.11 | inactive
AAMP | 1 | 3.16 | inactive
AAMP | 2 | 2.02 | inactive
AAMP | 3 | 0.0343 | inactive
UPK1A | 1 | -0.357 | inactive
UPK1A | 2 | -0.0301 | inactive
UPK1A | 3 | -0.704 | inactive
VNN2 | 1 | -0.772 | inactive
VNN2 | 2 | 0.377 | inactive
VNN2 | 3 | 0.179 | inactive
EFEMP1 | 1 | 0.832 | inactive
EFEMP1 | 2 | 0.0267 | inactive
EFEMP1 | 3 | -1.03 | inactive

The list goes on; the last 4 above are carried over.
Gene | reagent | G2 robust z-score | Call
VNN2 | 3 | 0.179 | inactive
EFEMP1 | 1 | 0.832 | inactive
EFEMP1 | 2 | 0.0267 | inactive
EFEMP1 | 3 | -1.03 | inactive
PLEKHG1 | 1 | 1.68 | inactive
PLEKHG1 | 2 | -0.799 | inactive
PLEKHG1 | 3 | -0.726 | inactive
ST8SIA6 | 1 | 3.14 | inactive
ST8SIA6 | 2 | 3.73 | inactive
ST8SIA6 | 3 | 1.39 | inactive
TIMM10B | 1 | 6.93 | active
TIMM10B | 2 | -0.402 | inactive
TIMM10B | 3 | -0.114 | inactive
ZNF101P2 | 1 | 0.251 | inactive
ZNF101P2 | 2 | 1.8 | inactive
ZNF101P2 | 3 | 3.61 | inactive
